Measurements reported in PubChem BioAssay AID2417 (National Center for Advancing Translational Sciences (NCATS), 2010).
The campaign covered roughly 140,000 compounds. About 4,300 (3.1%) were called active. The inconclusive results got no clear call from the source; some entries with a clear call stand among them for comparison.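 The calls were made as follows: active = readout at or below -70, meaning at least 70% loss of cells showing the perinucleolar compartment, a nuclear body marking cancer cells; inconclusive = readout between -30 and a set limit; inactive = the rest.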

Test: High Content Assay for Compounds that inhibit the Assembly of the Perinucleolar Compartment;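 also: plate controls were DMSO wells for no effect and camptothecin positive control wells for full effect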
Conditions: PC3M PTB-GFP, PNC prevalence imaging, 16 h; at 10 µM; stronger effect = lower value
Outline: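 Compounds are pinned in duplicate onto adhered PC3M cells stably expressing GFP-tagged PTB and incubated 16 h at 37 C. Cells are then fixed, nuclei stained with Hoechst, and PNC-positive cells counted.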

SMILES	activity change (PNC), negative = inhibition
O=C(CCCSc1nc2ccccc2[nH]1)NCc1ccc(Cl)cc1	inconclusive: -47.6%
O=C1c2ccccc2NC2CCCCC12 (stereo not drawn)	inconclusive: -32.3%
CCOc1ccc(NC(=O)CSc2nnc(CCNC(=O)c3ccc(OC)cc3)n2C)cc1	inactive: 15%
Nn1cc(-c2ccccc2)nc1SCC(=O)Nc1ccc2c(c1)OCO2	inconclusive: -35.2%
O/N=C(\c1ccc(Cl)cc1)c1cc2ccccc2o1	inconclusive: -47.8%
COc1ccc(CNCc2ccco2)cc1OCc1ccccc1	inconclusive: -57.1%
CC1(C)CC(CCN(Cc2ccccc2)C(=O)c2ccco2)(c2ccccc2)CCO1 (stereo not drawn)	inactive: -10.7%
Cc1nc(NC(=O)c2ccccc2)sc1-c1csc(Nc2cccc(F)c2)n1	inactive: 21.2%
c1ccc(-c2nnc3sc(-c4ccncc4)nn23)cc1	inactive: 17.6%
CSCC[C@H](NC(=O)C(C)Oc1ccc(Cl)cc1)c1nc2ccccc2[nH]1 (stereo partly drawn)	inconclusive: -56.6%
CC(=O)N1CCN(C(=O)CC2OC(=O)c3ccccc32)CC1 (stereo not drawn)	inactive: 7.28%
CCOC(=O)c1oc2ccccc2c1CN1CCN(c2ccccc2)CC1	inconclusive: -32.7%
C[C@H]1O[C@@H](O[C@H]2[C@@H](O)C[C@H](O[C@H]3[C@@H](O)C[C@H](O[C@H]4CC[C@@]5(C)[C@H](CC[C@@H]6[C@@H]5C[C@@H](O)[C@]5(C)[C@@H](C7=CC(=O)OC7)CC[C@]65O)C4)O[C@@H]3C)O[C@@H]2C)C[C@H](O)[C@@H]1O	active: -89.9%
NS(=O)(=O)c1ccc(CCNC(=O)Cc2c[nH]c3ccccc23)cc1	inactive: 64.7%
COc1ccc(Cn2nnnc2CN2CCOCC2)cc1	inactive: 223%
CC(C)CSc1nnc2[nH]c(=O)cc(N)n12	inconclusive: -38.3%
CCC(Nc1ccc(OC)cc1)C(=O)N/N=C/c1ccc([N+](=O)[O-])cc1 (stereo not drawn)	inconclusive: -41.8%
C=CCn1c(SCc2nc3ccccc3nc2C)nnc1-c1ccoc1C	inconclusive: -57.6%
O=C(COC(=O)[C@@H]1CC(O)CN1S(=O)(=O)c1ccc([N+](=O)[O-])cc1)NC12CC3CC(CC(C3)C1)C2 (stereo partly drawn)	inconclusive: -34.3%
O=C(COC(=O)c1ccccc1[N+](=O)[O-])c1ccc(C2CCCCC2)cc1	inactive: 0.801%
Cc1ccc(S(=O)(=O)NCCSc2nnnn2-c2ccccc2)cc1	inconclusive: -36.3%
CCOC(=O)N1CCN(Cc2nc(-c3cccc(C)c3)no2)CC1	inconclusive: -56.1%

Look-ups from the entries so far.
activity change (PNC), negative = inhibition with CCC(Nc1ccc(OC)cc1)C(=O)N/N=C/c1ccc([N+](=O)[O-])cc1 (stereo not drawn) is entered as inconclusive: -41.8%
activity change (PNC), negative = inhibition with C[C@H]1O[C@@H](O[C@H]2[C@@H](O)C[C@H](O[C@H]3[C@@H](O)C[C@H](O[C@H]4CC[C@@]5(C)[C@H](CC[C@@H]6[C@@H]5C[C@@H](O)[C@]5(C)[C@@H](C7=CC(=O)OC7)CC[C@]65O)C4)O[C@@H]3C)O[C@@H]2C)C[C@H](O)[C@@H]1O is entered as active: -89.9%

Next results follow.

SMILES	activity change (PNC), negative = inhibition
Cc1ccc2cn[nH]c2c1NC(=S)NC(=O)c1ccccc1	inconclusive: -36.7%
O=P(O)(O)CP(=O)(O)O	active: -100%
CCSc1nc2c(c(=O)[nH]1)C(c1cccnc1)C(C(=O)OC(C)C)=C(C)N2 (stereo not drawn)	inconclusive: -53.9%
O=C(Nc1cccc(Cl)c1)OCc1ccccn1	inconclusive: -30.3%
Cc1nn(Cc2ccccc2)c(Cl)c1C(=O)OCc1nnc(-c2ccc(Cl)cc2)o1	inactive: -7.47%
CCCN(Cc1ccc(N(C)C)cc1)CC1CC1	inconclusive: -33.4%
Cc1nc(-c2ccc(Br)cc2)ccc1C(=O)O	inconclusive: -49.5%
COc1ccccc1NC(=O)C1=C(C)NC2=C(C(=O)CCC2)C1c1ccc2c(c1)OCO2 (stereo not drawn)	inconclusive: -60.7%
COc1ccc(F)cc1S(=O)(=O)N1CCCN(S(=O)(=O)c2cc(F)ccc2OC)CC1	inconclusive: -45.1%
COc1cccc(-c2csc(N3CCN(Cc4ccccc4)CC3)n2)c1	inactive: -14.1%
COc1cccc([C@@H]2Oc3ccc(OC)cc3C(=O)[C@H]2OC(=O)Nc2cc(OC)c(OC)c(OC)c2)c1	inconclusive: -37.6%
CC(OC(=O)/C=C/c1ccco1)C(=O)Nc1cccc([N+](=O)[O-])c1 (stereo not drawn)	active: -83.7%
CSc1ccc(S(=O)(=O)Nc2ccc3c(c2)OCCO3)cc1	inactive: 15%
O=C(CCn1nnc2ccccc21)Nc1nnc(COc2ccc(F)cc2)s1	inactive: 34%
CC(C(=O)NC1CCCCCC1)N(c1ccccc1)S(C)(=O)=O (stereo not drawn)	inconclusive: -71.7%
CCOc1c(OC)ccc2c3c(c(=O)oc12)CCCC3	inconclusive: -43.5%
O=C(O)CCc1nn2cc(-c3ccccc3)nc2[nH]c1=O	active: -100%
O=S1(=O)CC2N=C(N(Cc3ccc(F)cc3Cl)c3ccccc3F)SC2C1 (stereo not drawn)	inconclusive: -47.6%
O=C(COC(=O)C12CC3CC(CC(C3)C1)C2)Nc1ncc(Cl)cc1Cl	active: -88.4%
O=C(c1cc(C2CC2)on1)N1CCN(C(c2ccccc2)c2ccccc2)CC1	inconclusive: -51.2%
Cc1ccc(S(=O)(=O)CC(C)N2CCN(C3CCCCC3)CC2)cc1 (stereo not drawn)	inconclusive: -74.5%
NC(=O)CSc1nc2scc(-c3ccco3)c2c(=O)n1-c1ccccc1	inactive: -27.5%

An excerpt from above in order of heavy-atom count, rising:
SMILES	activity change (PNC), negative = inhibition
c1ccc(-c2nnc3sc(-c4ccncc4)nn23)cc1	inactive: 17.6%
COc1ccc(Cn2nnnc2CN2CCOCC2)cc1	inactive: 223%
CCOC(=O)N1CCN(Cc2nc(-c3cccc(C)c3)no2)CC1	inconclusive: -56.1%

(listing goes on)

SMILES	activity change (PNC), negative = inhibition
COCCn1c(SCC(=O)N2CC(=O)Nc3ccccc32)nnc1-c1ccoc1C	inconclusive: -46.6%
CCNS(=O)(=O)c1cc(Br)ccc1OC	inconclusive: -43%
Cc1sc(NC(=O)c2ccc(OCC(C)C)cc2)c(C(N)=O)c1-c1ccc(Cl)cc1Cl	inactive: -14.5%
O=C(CCCCCCN1C(=O)c2ccccc2C1=O)N1CCC(c2ccccc2)C1 (stereo not drawn)	inconclusive: -35.6%
CC(C)C(=O)Nc1ccc(NC(=O)c2cccnc2)cn1	inconclusive: -37.6%
O=C(CC1(O)C(=O)N(Cc2ccccc2)c2ccccc21)c1ccncc1 (stereo not drawn)	inactive: 6.42%
Cc1ccc(N(C(=O)C2COc3ccccc3O2)C(C(=O)NC2CCCCC2)c2cn(C)nc2C)cc1 (stereo not drawn)	inconclusive: -55.6%
COc1ccc(C(=O)c2ccc(OC)c(Br)c2)cc1Br	inconclusive: -48%
Cc1cccc(NC(=O)NNC(=O)c2c(Cl)c(C)nn2C)c1	inconclusive: -73%
COc1ccccc1-c1cc(-c2cc(Cl)ccc2O)n[nH]1	inactive: -21.8%
COc1ccc2cnn(-c3ccc(C)cc3)c(=O)c2c1OC	inactive: -17.8%
CCN(C(=O)Cc1cccs1)c1nnc(-c2cccnc2)s1	inactive: -25.2%
O=[N+]([O-])c1cc(C(F)(F)F)ccc1N/N=C/c1cc2ccccc2nc1Cl	inactive: 102%
Cc1cc(=O)oc(C)c1C(=O)NCCC(C)C	inconclusive: -63.7%
Cc1ccc(C(=O)NCCn2c(N)c(C#N)c3nc4ccccc4nc32)cc1	inconclusive: -54%
CC(NC(=O)c1ccc(N(C)C)cc1)C(c1cccs1)N1CCN(C)CC1 (stereo not drawn)	inconclusive: -32.3%
COc1ccc(/C=C/c2nc(C)c(-c3ccccc3)c(=O)[nH]2)cc1OC	inconclusive: -73.9%
C=CCNC(=O)CC(=O)N/N=C/c1ccccc1F	inconclusive: -35.1%
Cc1ccc(-c2n[nH]c(=O)c3ccccc23)cc1S(=O)(=O)Nc1ccccc1	inconclusive: -34.9%
CCCn1c(SCC(=O)c2ccc(CC)cc2)n[nH]c1=O	inactive: 6.2%
CC(C)c1nc2sc3c(=O)n(N)cnc3c2c2c1COC(C)(C)C2	inconclusive: -52.9%
COc1ccc(C(=O)NC(=S)Nc2ccc3c4c(cccc24)CC3)cc1OC	inconclusive: -67.5%

SMILES	activity change (PNC), negative = inhibition
Cc1ccc2cc(CN(C(=O)c3ccncc3)C(C)C)c(=O)[nH]c2c1	inconclusive: -67.9%
CCC1CCCCN1C(=O)c1noc(C(C)C)c1[N+](=O)[O-] (stereo not drawn)	inconclusive: -61.8%
COc1cc2c(cc1NC(=O)C1CCCO1)oc1ccccc12 (stereo not drawn)	inconclusive: -62.2%
CCCc1cc(C(N)=O)c(NC(=O)c2cc(C)on2)s1	inconclusive: -73.9%
COc1ccc(N2C(=O)CSC2c2ccc3c(c2)OCO3)cc1 (stereo not drawn)	inconclusive: -37.6%
COc1cc(OC)c(C(=O)OC(C)C(=O)Nc2cccc(C(F)(F)F)c2)cc1OC (stereo not drawn)	inactive: 7.66%
CCCOc1ccc(NC(=O)CC2C(=O)N(C)C(=S)N2Cc2ccc3c(c2)OCO3)cc1 (stereo not drawn)	active: -134%
CCCCN(Cc1cc2ccccc2[nH]c1=O)S(C)(=O)=O	inconclusive: -74.1%
Cc1ccsc1/C=N/n1c(-c2ccco2)n[nH]c1=S	inconclusive: -46.1%
COc1cccc(-n2c(-c3ccco3)nc3nc4ccccc4nc32)c1	inconclusive: -38.2%
COc1cc2cc(CN(Cc3cccs3)C(=S)Nc3ccc(C)cc3)c(=O)[nH]c2cc1OC	inactive: -23.9%
N#CC1=C(N)Oc2ccc3ccc(O)cc3c2C1c1cccnc1 (stereo not drawn)	inactive: -20%
CC1CCN(c2ccc(/C=N\Nc3nncn3N)cc2[N+](=O)[O-])CC1	active: -116%
Cc1ccc2cc(CN(CC3CCCO3)S(=O)(=O)c3ccccc3)c3nnnn3c2c1 (stereo not drawn)	active: -100%
COC(=O)c1[nH]c2ccc(F)cc2c1NC(=O)CCN1CC(C)OC(C)C1 (stereo not drawn)	active: -89.2%
N#Cc1c(C(F)(F)F)cc(-c2ccccc2Cl)[nH]c1=O	inactive: 27.1%
Cc1ccc(Cn2cccc(NC(=O)c3ccco3)c2=O)cc1	inconclusive: -49.9%
CC(=O)Nc1cc(-c2ccc(Cl)cc2)nn1-c1ccccc1	inconclusive: -42%
COc1ccc(C(=O)Nc2ccccc2-c2nnn(CC(=O)Nc3ccc4c(c3)OCCO4)n2)cc1	inconclusive: -76.7%
C=CCCC(=O)Nc1ccc(COC(=O)N2CCOCC2)cc1	inconclusive: -35.6%
CCN(CC)S(=O)(=O)c1ccc(C)c(NC(=O)CN(C)C)c1	active: -83.9%
CCc1nc(NCc2ccc3c(c2)OCO3)c2oc3ccccc3c2n1	inconclusive: -38.6%
